For the assay, the target named is T1, BBS4 (UniProt Q96RK4).
T1 sequence: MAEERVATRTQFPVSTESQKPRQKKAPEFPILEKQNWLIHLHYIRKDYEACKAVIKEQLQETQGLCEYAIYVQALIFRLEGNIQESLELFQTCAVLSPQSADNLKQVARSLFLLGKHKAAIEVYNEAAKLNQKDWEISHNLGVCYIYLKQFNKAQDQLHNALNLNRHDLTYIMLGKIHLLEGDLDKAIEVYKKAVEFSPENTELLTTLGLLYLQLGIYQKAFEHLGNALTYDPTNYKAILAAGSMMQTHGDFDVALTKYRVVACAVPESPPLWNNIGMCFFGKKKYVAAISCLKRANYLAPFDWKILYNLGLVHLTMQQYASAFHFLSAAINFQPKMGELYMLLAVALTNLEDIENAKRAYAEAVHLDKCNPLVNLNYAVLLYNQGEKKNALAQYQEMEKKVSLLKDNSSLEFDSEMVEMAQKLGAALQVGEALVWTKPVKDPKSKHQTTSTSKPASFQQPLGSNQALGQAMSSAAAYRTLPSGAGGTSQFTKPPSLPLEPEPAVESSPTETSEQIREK
Description: two-hybrid; Cytotrap cytoplasmic yeast two-hybrid (Stratagene); screen of a human fetal brain library with full length BBS4 as bait; prey in the pMyr vector.

No constants are given. Whether binding was seen depends on the method and setting. Some results given as binding are weak or reduced against the parent protein; the word gives no strength.

B1: FSTL1 prey construct (residue E56 to the stop codon) (domain or fragment, UniProt Q12841-1 56-308)
chain: EQCKPHKRPVCGSNGKTYLNHCELHRDACLTGSKIQVDYDGHCKEKKSVSPSASPVVCYQSNRDELRRRIIQWLEAEIIPDGWFSKGSNYSEILDKYFKNFDNGDSRLDSSEFLKFVEQNETAINITTYPDQENNKLLRGLCVDALIELSDENADWKLSFQEFLKCLNPSFNPPEKKCALEDETYADGAETEVDCNRCVCACGNWVCTAMTCDGKNQKGAQTQTEEEMTRYVQELQKHQETAEKTKRVSTKEI
B1: the binding result is listed as “binds”.

The values above are taken from article PMC5575278.
